Data as given in article doi:10.1101/2021.02.07.430167 (bioRxiv, 2021).
Results are given in words; binding and its absence hold for the method and conditions named. In cells and extracts the contact can be indirect. Some results given as binding are weak or reduced against the parent protein; the word gives no strength. For part of these data: Tags and fused reporters may be left off the sequences shown.

Sequences of proteins named here, by UniProt entry; tags and fusion partners are left off. A change or cut given only in a name is not applied to a line headed by its entry. Residues count along the entry.
UniProt P08138, 29-427: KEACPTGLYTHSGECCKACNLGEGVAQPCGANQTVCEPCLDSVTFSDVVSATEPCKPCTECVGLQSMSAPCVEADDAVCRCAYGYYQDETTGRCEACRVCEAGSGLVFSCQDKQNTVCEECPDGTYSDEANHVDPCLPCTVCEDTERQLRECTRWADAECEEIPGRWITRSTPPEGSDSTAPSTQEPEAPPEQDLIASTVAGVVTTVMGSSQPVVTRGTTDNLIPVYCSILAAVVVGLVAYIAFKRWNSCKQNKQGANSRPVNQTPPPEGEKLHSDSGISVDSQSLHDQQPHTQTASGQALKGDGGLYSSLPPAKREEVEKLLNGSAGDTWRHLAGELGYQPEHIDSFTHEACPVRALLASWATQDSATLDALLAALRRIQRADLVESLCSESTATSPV
UniProt P08138, whole entry, looked up, stated change not applied: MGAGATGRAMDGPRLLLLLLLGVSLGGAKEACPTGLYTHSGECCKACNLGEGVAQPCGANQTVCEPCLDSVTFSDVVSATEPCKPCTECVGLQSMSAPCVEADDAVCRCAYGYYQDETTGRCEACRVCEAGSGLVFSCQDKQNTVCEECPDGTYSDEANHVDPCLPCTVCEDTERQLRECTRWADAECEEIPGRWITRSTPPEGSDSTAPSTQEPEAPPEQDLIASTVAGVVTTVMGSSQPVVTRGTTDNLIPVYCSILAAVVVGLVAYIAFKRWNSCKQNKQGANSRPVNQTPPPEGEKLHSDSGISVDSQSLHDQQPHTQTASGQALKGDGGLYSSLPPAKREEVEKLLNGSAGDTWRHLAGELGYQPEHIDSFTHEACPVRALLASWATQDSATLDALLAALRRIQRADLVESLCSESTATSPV

What was measured:
[1] = molecular target: full-length HA-tagged human p75NTR (human) (UniProt P08138); assay: proximity ligation
[2] = molecular target: full-length HA-tagged human p75NTR (human) (UniProt P08138); assay: co-IP
[3] = molecular target: full-length HA-tagged human p75NTR K349A (human) (UniProt P08138); assay: co-IP

B1: TRADD of mouse cerebellar granule neurons (protein, UniProt Q3U0V2 1-310)
chain: MAAGQNGHEEWVGSAYLFLESAVDKVILSEAYTDPKKKVAIYKALQTALSESGDSSDVLQILKIHCSDPQLIVQLRFCGRVLCGRFLQAYREGALRTALQRCMAPALAQEALRLQLELRAGAEQLDSWLTDEERCLNYILAQKPDRLRDEELAELEDELCKLTCDCTGQGGAIQVASAGSKFPVSSPTEEKPLPAACQTFLFHGQLVVNRPLTLQDQQTFARSVGLKWRRVGRSLQRNCRALRDPALDSLAYEYERDGLYEQAFQLLRRFMQAEGRRATLQRLVEALEENELTSLAEDLLGQAEPDGGLA
- binding [1]: binds

B2: full-length Myc-tagged human TRADD (protein, UniProt Q15628 1-312)
chain: MAAGQNGHEEWVGSAYLFVESSLDKVVLSDAYAHPQQKVAVYRALQAALAESGGSPDVLQMLKIHRSDPQLIVQLRFCGRQPCGRFLRAYREGALRAALQRSLAAALAQHSVPLQLELRAGAERLDALLADEERCLSCILAQQPDRLRDEELAELEDALRNLKCGSGARGGDGEVASAPLQPPVPSLSEVKPPPPPPPAQTFLFQGQPVVNRPLSLKDQQTFARSVGLKWRKVGRSLQRGCRALRDPALDSLAYEYEREGLYEQAFQLLRRFVQAEGRRATLQRLVEALEENELTSLAEDLLGLTDPNGGLA
- binding [2]: binds
- binding [3]: no binding
